Experimental data reported in paper PMC8316464.
Results are given in words; binding and its absence hold for the method and conditions named. Sequences can lack the tags named with a protein.

The chains behind the UniProt entries cited, without tags or fusion partners. Where a name states a change or a piece, a line headed by the entry shows the natural chain unless it says otherwise.
UniProt Q07817: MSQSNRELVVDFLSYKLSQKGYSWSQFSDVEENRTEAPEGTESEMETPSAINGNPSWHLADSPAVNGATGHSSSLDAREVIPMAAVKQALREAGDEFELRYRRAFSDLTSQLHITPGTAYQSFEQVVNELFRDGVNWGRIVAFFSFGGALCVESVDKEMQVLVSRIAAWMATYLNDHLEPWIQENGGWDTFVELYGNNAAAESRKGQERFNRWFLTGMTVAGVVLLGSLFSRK
UniProt Q07820: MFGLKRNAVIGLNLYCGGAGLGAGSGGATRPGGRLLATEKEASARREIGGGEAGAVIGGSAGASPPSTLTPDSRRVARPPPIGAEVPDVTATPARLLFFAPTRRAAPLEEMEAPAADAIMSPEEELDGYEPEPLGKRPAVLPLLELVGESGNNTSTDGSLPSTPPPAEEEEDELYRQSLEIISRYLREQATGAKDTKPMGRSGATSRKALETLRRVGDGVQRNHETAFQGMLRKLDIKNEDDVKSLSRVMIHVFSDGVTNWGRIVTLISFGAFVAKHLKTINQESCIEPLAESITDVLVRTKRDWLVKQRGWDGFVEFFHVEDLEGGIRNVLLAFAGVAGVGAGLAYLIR

Experiments:
Bcl-xL (human) = Bcl-xL (human) (UniProt Q07817); test: SPR; Biacore S200; Bcl-2 family proteins immobilised on CM5 (amine coupling or His-Capture Kit); peptides and flag-tagged proteins as analytes, single-cycle kinetics, HBS-EP, 25 °C; 1:1 Langmuir model; absence of binding probed at 100 nM and 3 µM; both purified
[1] = molecular target: His-tagged human Mcl-1 (human) (UniProt Q07820); test: as above

Row | Binder | binding (Bcl-xL (human)) | binding [1]
1 | flag-tagged ApoL1-NTD (D61–T172) (domain or fragment, UniProt O14791 61-172) DPESSIFIEDAIKYFKEKVSTQNLLLLLTDNEAWNGFVAAAELPRNEADELRKALDNLARQMIMKDKNWHDKGQQYRNWFLKEFPRLKSELEDNIRRLRALADGVQKVHKGT | no binding (tested: up to 3 µM) | no binding (tested: up to 3 µM)
2 | RLKSELEDNIRRLRALADGVQKVHK [ApoL1-BH3 peptide (25-mer, residues 146-170)] | no binding (tested: up to 3 µM) | no binding (tested: up to 3 µM)
3 | RLKSELEDNARRLRALADGVQKVHK [ApoL1-BH3 (I155A) peptide] | no binding (tested: up to 3 µM) | no binding (tested: up to 3 µM)
4 | RLKRELEDHIRKLRALAEEVEQVHR [ApoL2-BH3 peptide (25-mer, residues 87-111)] | no binding (tested: up to 3 µM) | no binding (tested: up to 3 µM)

Continued, values first:

Row | binding (Bcl-xL (human)) | binding [1] | Binder
5 | no binding (tested: up to 3 µM) | no binding (tested: up to 3 µM) | full-length ApoL1 with N-terminal flag-tag (protein, UniProt O14791-1 28-398) EEAGARVQQNVPSGTDTGDPQSKPLGDWAAGTMDPESSIFIEDAIKYFKEKVSTQNLLLLLTDNEAWNGFVAAAELPRNEADELRKALDNLARQMIMKDKNWHDKGQQYRNWFLKEFPRLKSELEDNIRRLRALADGVQKVHKGTTIANVVSGSLSISSGILTLVGMGLAPFTEGGSLVLLEPGMELGITAALTGITSSTMDYGKKWWTQAQAHDLVIKSLDKLKEVREFLGENISNFLSLAGNTYQLTRGIGKDIRALRRARANLQSVPHASASRPRVTEPISAESGEQVERVNEPSILEMSRGVKLTDVAPVSFFLVLDVVYLVYESKHLHEGAKSETAEELKKVAQELEEKLNILNNNYKILQADQEL
6 | no binding (tested: up to 3 µM) | no binding (tested: up to 3 µM) | flag-tagged ApoL2-NTD (N2-T113) (domain or fragment, UniProt Q9BQE5 2-113) NPESSIFIEDYLKYFQDQVSRENLLQLLTDDEAWNGFVAAAELPRDEADELRKALNKLASHMVMKDKNRHDKDQQHRQWFLKEFPRLKRELEDHIRKLRALAEEVEQVHRGT
